PubChem BioAssay AID1671195, Yale University | 2021
In all, the deposit lists about 22,000 reagents; below is a part drawn at random. Of all reagents, about 1,510 (6.9%) were called active. 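Active includes knockdowns raising or lowering LDL uptake; positive z-scores mean more uptake, negative mean less.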 Reagent sequences are not shown.

Test: 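Regulators of LDL receptor activity judged by labelled LDL uptake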 (primary screen)
Cell system: human Huh7 hepatoma cells
Knock-down reagent: siRNA pool against human genes, 18 nM
Time to read-out: about 2 to 2.5 days of knockdown, then 8 h LDL uptake
Conditions: DiI-labelled LDL at 30 µg/ml for 8 h, in lipoprotein-deficient serum medium
Detection: 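Per-cell DiI-LDL intensity by automated imaging; well means scaled to the plate median and given as a robust z-score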
Scale: robust z-score: higher = more LDL uptake after knockdown
Hit rule: 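a gene counts as active if at least two replicate z-scores exceed ±2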

Gene	robust z-score, replicate 1	robust z-score, replicate 2	robust z-score, replicate 3	activity call
HLF	-0.196	-1.91	-0.893	inactive
HERC3	-1.43	-1.23	-1.2	inactive
ITGB8	1.05	0.391	1.21	inactive
OPRK1	0.209	0.453	0.88	inactive
IFNA16	0.758	0.501	1.69	inactive
LOC400964 (retired record)	-1.36	-1.24	-0.833	inactive
ERMP1	0.789	0.613	1.2	inactive
C6orf163	-1.28	-1.39	-1.36	inactive
PCCB	1.47	-0.419	0.102	inactive
SSX1	0.421	1.2	0.494	inactive
METTL4	1.64	1.75	1.03	inactive
PCDHA9	2.33	2.5	1.89	active
CCDC59	-0.189	-2.33	-0.605	inactive
ARFGEF2	-0.508	-0.337	-0.995	inactive
GPM6A	-0.171	-0.642	0.264	inactive
SOX13	-0.726	-0.557	-0.52	inactive
DENR	0.534	-1.02	-0.577	inactive
RAB7A	0.843	1.7	-0.125	inactive
LOC388709 (retired record)	-0.165	0.249	-0.525	inactive
KCTD20	1.06	2.02	2.16	active
OR6C6	-1.36	-1.19	-1.15	inactive
CDH22	0.605	0.607	0.68	inactive
SNHG12	-0.481	-0.000126	0.174	inactive
PLK4	1.56	1.15	0.268	inactive
LOC441790 (retired record)	2.15	2.27	3.01	active
CKS2	0.538	0.384	0.918	inactive
CNKSR2	-0.812	-1.45	-1.42	inactive
OXSM	-0.233	-0.463	-0.209	inactive
GALR3	-1.09	-0.298	-0.504	inactive
LINC02111	-0.251	-0.488	-0.377	inactive
MTCH1	0.742	1.34	0.876	inactive
KIF19	-1.08	-0.905	-1.22	inactive
MRC2	0.264	0.406	0.126	inactive
LMF2	-0.293	-0.142	-0.111	inactive
CYTH2	0.567	0.713	0.396	inactive
RBM15-AS1	-0.978	-0.312	-0.606	inactive
ABCG5	4.31	4.62	2.32	active
LOC441544 (retired record)	-1.53	-1.68	-1.37	inactive
CTSF	0.0927	-0.366	0.341	inactive
SLC18A3	0.893	1.01	1.47	inactive
RHOV	-0.826	-0.928	-1.3	inactive
TUBA1B	-1.4	-1.81	-1.35	inactive
APCS	1.49	0.941	1.31	inactive
WNT10B	0.0587	-0.415	-1.13	inactive
ITGA5	0.988	-0.623	-0.471	inactive
UTP20	0.34	-0.511	0.678	inactive

Single entries from the entries so far:
For “activity call”, ITGB8 shows inactive
TUBA1B, activity call = inactive
Under “robust z-score, replicate 3”, CDH22 shows 0.68
For “robust z-score, replicate 1”, LINC02111 is entered as -0.251
For “robust z-score, replicate 3”, SSX1 has 0.494
